Assay results reported in PubChem BioAssay AID188 (DTP/NCI, 2004).
Values are animals surviving of animals treated; these mice carried no tumour. Counts of survivors are from the toxicity check (mostly the fifth day) where no day follows; animals may have died later. Schedule codes are those of the source, taken here to give the interval after Q, in days (D) or hours (H), and the number of doses after X. Some structures stand for samples that the source files as different forms (salt, stereo form or complex); doses refer to the form tested. Counts like (3×) count equal records among those shown. Some entries hold several experiments; their values stand side by side, smallest first.

System: CD2F1 mice, nontumored, toxicity/survival
Assay: NCI In Vivo Anticancer Drug Screen. Data for tumor model Nontumored Animals (Toxicity Test) in CD2F1 (CDF1) mice

`COc1cc(NS(C)(=O)=O)ccc1Nc1c2ccccc2nc2ccccc12` was tested, and the survivor count (dose: 8.0 mg/kg/injection, schedule: Q01DX009 (oral), vehicle: saline) was 8 of 8 (2×), the survivor count (dose: 8.0 mg/kg/injection, schedule: Q01DX009 (sc), vehicle: other) was 8 of 8 (2×) and the survivor count (dose: 8.0 mg/kg/injection, schedule: Q01DX009 (sc), vehicle: saline) was 8 of 8 (2×). The survivor count (dose: 8.0 mg/kg/injection, schedule: Q03HX008 (ip), vehicle: other) was 0 of 8 (2×), the survivor count (dose: 8.0 mg/kg/injection, schedule: Q03HX008 (ip), vehicle: saline) was 4 of 8 and 7 of 8 and the survivor count (dose: 8.0 mg/kg/injection, schedule: Q03HX016 (ip), vehicle: other) was 3 of 8 (2×). For the same molecule, the survivor count (dose: 8.0 mg/kg/injection, schedule: Q03HX016 (ip), vehicle: saline) was 7 of 8 (2×), the survivor count (dose: 8.0 mg/kg/injection, schedule: Q03HX024 (ip), vehicle: saline) was 6 of 8 and the survivor count (dose: 8.0 mg/kg/injection, schedule: Q04DX003 (ip), vehicle: other) was 4 of 4, 5 of 5, 8 of 8 (2×). The survivor count (dose: 8.0 mg/kg/injection, schedule: Q04DX003 (ip), vehicle: saline) was 7 of 8 and 8 of 8, the survivor count (dose: 8.0 mg/kg/injection, schedule: Q08DX002 (ip), vehicle: other) was 8 of 8 (2×) and the survivor count (dose: 8.0 mg/kg/injection, schedule: Q08DX002 (ip), vehicle: saline) was 8 of 8. For the same molecule, the survivor count (dose: 16.0 mg/kg/injection, schedule: Q01DX001 (ip), vehicle: other) was 8 of 8 (2×), the survivor count (dose: 16.0 mg/kg/injection, schedule: Q01DX001 (ip), vehicle: saline) was 8 of 8 (2×) and the survivor count (dose: 16.0 mg/kg/injection, schedule: Q01DX001 (oral), vehicle: other) was 8 of 8 (2×). The survivor count (dose: 16.0 mg/kg/injection, schedule: Q01DX001 (sc), vehicle: other) was 8 of 8 (2×), the survivor count (dose: 16.0 mg/kg/injection, schedule: Q01DX001 (sc), vehicle: saline) was 8 of 8 (2×) and the survivor count (dose: 16.0 mg/kg/injection, schedule: Q01DX009 (ip), vehicle: other) was 4 of 8 (2×). For the same molecule, the survivor count (dose: 16.0 mg/kg/injection, schedule: Q01DX009 (ip), vehicle: saline) was 7 of 8 and 8 of 8, the survivor count (dose: 16.0 mg/kg/injection, schedule: Q01DX009 (oral), vehicle: other) was 8 of 8 (2×) and the survivor count (dose: 16.0 mg/kg/injection, schedule: Q01DX009 (oral), vehicle: saline) was 8 of 8 (2×). The survivor count (dose: 16.0 mg/kg/injection, schedule: Q01DX009 (sc), vehicle: other) was 7 of 8 (2×), the survivor count (dose: 16.0 mg/kg/injection, schedule: Q01DX009 (sc), vehicle: saline) was 8 of 8 (2×) and the survivor count (dose: 16.0 mg/kg/injection, schedule: Q03HX008 (ip), vehicle: other) was 0 of 8 (2×). The survivor count (dose: 16.0 mg/kg/injection, schedule: Q03HX008 (ip), vehicle: saline) was 0 of 8 and 6 of 8, the survivor count (dose: 16.0 mg/kg/injection, schedule: Q03HX016 (ip), vehicle: other) was 0 of 8 (2×) and the survivor count (dose: 16.0 mg/kg/injection, schedule: Q03HX016 (ip), vehicle: saline) was 5 of 8. For the same molecule, the survivor count (dose: 16.0 mg/kg/injection, schedule: Q03HX024 (ip), vehicle: saline) was 2 of 8, the survivor count (dose: 16.0 mg/kg/injection, schedule: Q04DX003 (ip), vehicle: other) was 0 of 2, 3 of 4, 8 of 8 (2×) and the survivor count (dose: 16.0 mg/kg/injection, schedule: Q04DX003 (ip), vehicle: saline) was 8 of 8 (2×). For the same molecule, the survivor count (dose: 16.0 mg/kg/injection, schedule: Q08DX002 (ip), vehicle: other) was 8 of 8 (2×), the survivor count (dose: 16.0 mg/kg/injection, schedule: Q08DX002 (ip), vehicle: saline) was 8 of 8 (2×) and the survivor count (dose: 32.0 mg/kg/injection, schedule: Q01DX001 (ip), vehicle: other) was 4 of 8 (2×). For the same molecule, the survivor count (dose: 32.0 mg/kg/injection, schedule: Q01DX001 (ip), vehicle: saline) was 8 of 8 (2×), the survivor count (dose: 32.0 mg/kg/injection, schedule: Q01DX001 (oral), vehicle: other) was 8 of 8 (2×) and the survivor count (dose: 32.0 mg/kg/injection, schedule: Q01DX001 (oral), vehicle: saline) was 8 of 8. For the same molecule, the survivor count (dose: 32.0 mg/kg/injection, schedule: Q01DX001 (sc), vehicle: other) was 8 of 8 (2×), the survivor count (dose: 32.0 mg/kg/injection, schedule: Q01DX001 (sc), vehicle: saline) was 8 of 8 (2×) and the survivor count (dose: 32.0 mg/kg/injection, schedule: Q01DX009 (oral), vehicle: other) was 8 of 8 (2×). The survivor count (dose: 32.0 mg/kg/injection, schedule: Q01DX009 (oral), vehicle: saline) was 8 of 8 (2×), the survivor count (dose: 32.0 mg/kg/injection, schedule: Q03HX008 (ip), vehicle: saline) was 0 of 8 and the survivor count (dose: 32.0 mg/kg/injection, schedule: Q03HX016 (ip), vehicle: saline) was 2 of 8. The survivor count (dose: 32.0 mg/kg/injection, schedule: Q04DX003 (ip), vehicle: other) was 6 of 8 (2×), the survivor count (dose: 32.0 mg/kg/injection, schedule: Q04DX003 (ip), vehicle: saline) was 8 of 8 (2×) and the survivor count (dose: 32.0 mg/kg/injection, schedule: Q08DX002 (ip), vehicle: other) was 5 of 8 (2×). The survivor count (dose: 32.0 mg/kg/injection, schedule: Q08DX002 (ip), vehicle: saline) was 8 of 8 (2×), the survivor count (dose: 64.0 mg/kg/injection, schedule: Q01DX001 (ip), vehicle: other) was 1 of 8 (2×) and the survivor count (dose: 64.0 mg/kg/injection, schedule: Q01DX001 (ip), vehicle: saline) was 8 of 8 (2×). For the same molecule, the survivor count (dose: 64.0 mg/kg/injection, schedule: Q01DX001 (oral), vehicle: other) was 8 of 8 (2×), the survivor count (dose: 64.0 mg/kg/injection, schedule: Q01DX001 (oral), vehicle: saline) was 8 of 8 (2×) and the survivor count (dose: 64.0 mg/kg/injection, schedule: Q01DX001 (sc), vehicle: other) was 8 of 8 (2×). For the same molecule, the survivor count (dose: 64.0 mg/kg/injection, schedule: Q01DX001 (sc), vehicle: saline) was 8 of 8 (2×), the survivor count (dose: 64.0 mg/kg/injection, schedule: Q01DX009 (oral), vehicle: other) was 4 of 8 (2×) and the survivor count (dose: 64.0 mg/kg/injection, schedule: Q01DX009 (oral), vehicle: saline) was 7 of 8 and 8 of 8. For the same molecule, the survivor count (dose: 64.0 mg/kg/injection, schedule: Q04DX003 (ip), vehicle: saline) was 8 of 8, the survivor count (dose: 64.0 mg/kg/injection, schedule: Q08DX002 (ip), vehicle: other) was 1 of 8 (2×) and the survivor count (dose: 64.0 mg/kg/injection, schedule: Q08DX002 (ip), vehicle: saline) was 8 of 8 (2×). The survivor count (dose: 128.0 mg/kg/injection, schedule: Q01DX001 (ip), vehicle: other) was 0 of 8 (2×), the survivor count (dose: 128.0 mg/kg/injection, schedule: Q01DX001 (ip), vehicle: saline) was 7 of 8 and 8 of 8 and the survivor count (dose: 128.0 mg/kg/injection, schedule: Q01DX001 (oral), vehicle: other) was 8 of 8 (2×). The survivor count (dose: 128.0 mg/kg/injection, schedule: Q01DX001 (oral), vehicle: saline) was 8 of 8 (2×), the survivor count (dose: 128.0 mg/kg/injection, schedule: Q01DX001 (sc), vehicle: other) was 6 of 8 (2×) and the survivor count (dose: 128.0 mg/kg/injection, schedule: Q01DX001 (sc), vehicle: saline) was 8 of 8 (2×). For the same molecule, the survivor count (dose: 128.0 mg/kg/injection, schedule: Q04DX003 (ip), vehicle: saline) was 7 of 8, the survivor count (dose: 128.0 mg/kg/injection, schedule: Q08DX002 (ip), vehicle: other) was 0 of 8 (2×) and the survivor count (dose: 128.0 mg/kg/injection, schedule: Q08DX002 (ip), vehicle: saline) was 8 of 8. For the same molecule, the survivor count (dose: 256.0 mg/kg/injection, schedule: Q01DX001 (ip), vehicle: saline) was 8 of 8, the survivor count (dose: 256.0 mg/kg/injection, schedule: Q01DX001 (oral), vehicle: other) was 1 of 8 (2×) and the survivor count (dose: 256.0 mg/kg/injection, schedule: Q01DX001 (oral), vehicle: saline) was 6 of 8 and 8 of 8. For the same molecule, the survivor count (dose: 256.0 mg/kg/injection, schedule: Q01DX001 (sc), vehicle: saline) was 8 of 8, the survivor count (dose: 256.0 mg/kg/injection, schedule: Q08DX002 (ip), vehicle: saline) was 5 of 8 and the survivor count (dose: 512.0 mg/kg/injection, schedule: Q01DX001 (oral), vehicle: other) was 0 of 8 (2×). The survivor count (dose: 512.0 mg/kg/injection, schedule: Q01DX001 (oral), vehicle: saline) was 4 of 8 and 8 of 8 and the survivor count (dose: 1024.0 mg/kg/injection, schedule: Q01DX001 (oral), vehicle: saline) was 3 of 8.
